## Library screening results

Protein sequences, listed by entry. Tags and fused reporters are not part of them.
UniProt E9BF75, entry or part of it: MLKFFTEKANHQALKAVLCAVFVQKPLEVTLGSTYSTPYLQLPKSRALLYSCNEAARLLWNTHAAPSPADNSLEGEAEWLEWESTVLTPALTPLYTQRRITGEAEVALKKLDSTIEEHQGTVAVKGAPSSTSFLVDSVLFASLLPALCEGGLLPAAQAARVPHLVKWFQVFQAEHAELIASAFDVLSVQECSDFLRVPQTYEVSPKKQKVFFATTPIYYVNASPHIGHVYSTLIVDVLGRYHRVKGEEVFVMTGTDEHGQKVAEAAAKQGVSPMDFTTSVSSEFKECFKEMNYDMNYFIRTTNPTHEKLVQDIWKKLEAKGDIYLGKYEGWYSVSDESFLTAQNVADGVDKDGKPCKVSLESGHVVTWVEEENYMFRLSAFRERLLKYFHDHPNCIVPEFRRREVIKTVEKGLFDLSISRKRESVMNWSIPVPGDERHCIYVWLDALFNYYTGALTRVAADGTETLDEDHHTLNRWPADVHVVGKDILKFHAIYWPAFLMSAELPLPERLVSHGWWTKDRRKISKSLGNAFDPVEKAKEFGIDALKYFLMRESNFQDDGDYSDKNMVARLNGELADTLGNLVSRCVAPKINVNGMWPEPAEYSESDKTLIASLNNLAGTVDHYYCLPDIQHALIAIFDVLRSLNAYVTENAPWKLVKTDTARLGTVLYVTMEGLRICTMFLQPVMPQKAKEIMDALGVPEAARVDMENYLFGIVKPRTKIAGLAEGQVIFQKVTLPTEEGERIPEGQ

The values are deposited in ChEMBL (CHEMBL3988442, “University of Dundee, Small-Polar-MMV Screening Library” (2021)).

LdMetRS: 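Methionyl-tRNA synthetase (putative), Leishmania donovani (UniProt E9BF75). Primary screen of methionyl-tRNA synthetase; the read-out is not stated. The test concentration is not given. The values are filed as inhibition. Of about 68,000 compounds tested this way, about 24 (0.035%) reached 50% or more in at least one test.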
Mtb heat-shock: 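Assay on Mycobacterium tuberculosis, filed only as a heat shock assay from Cornell; the read-out is not stated. The concentration is filed as 10 mM, unlikely as a test dose, so the dose is not known. Higher reads as stronger inhibition (inferred: compounds with an IC50 in retests scored well above the rest). Size under these conditions: about 69,000 compounds, about 930 of them at 50% or above in at least one test.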

All values are in %.
How 0% and 100% were set is not recorded. Most values in the screen are low, and negative values occur.
This is an unselected part of the compounds tested.
A dash means the value is not listed here; it may have been measured.

SMILES,LdMetRS,Mtb heat-shock
Cc1n[nH]cc1CNCc1cccc(OCC(F)(F)F)c1,9.783%,-
Cc1noc(C)c1CN1CCN(C)c2ncccc2C1.O=C(O)C(F)(F)F.O=C(O)C(F)(F)F,-,-0.562%
COc1cc(CNC2CCCN(c3cccnn3)C2)cc2c1OCO2 (stereo not drawn),14.09%,4.732%
CNC(=O)c1cc2c(nc1N(C)C)CCN(S(=O)(=O)CC(C)C)CC2,17.65%,-
Cc1ccc(-c2noc(C3CCN3C(=O)c3cc[nH]n3)n2)s1 (stereo not drawn),11.05%,5.943%
O=C(c1cccc2c1OCCO2)N1CCCC(n2ccnc2)C1 (stereo not drawn),13.27%,0.5352%
[H][C@]12CCN(C(=O)c3ccccn3)CC[C@@]1([H])S(=O)(=O)N(CC(C)C)C2,-,-12.32%
CCOc1ncccc1NC(=O)N1CCC(CN2CCOCC2)CC1,9.841%,-17.91%
O=C(CN(C1=NCCCC1)c1ccccc1)c1ccc(OC(F)F)cc1,14.58%,-
Cn1cc(C2COC3(CCN(C(=O)c4cccn4C)CC3)C2)cn1 (stereo not drawn),4.975%,-0.7553%
O=c1c2cnc(N3CCCCC3)nc2ccn1Cc1ccco1,9.392%,-14.44%
c1coc(CNc2nnc(Cc3ccsc3)o2)c1,17.25%,32.21%
CC1(C)[C@H]2CC=C(CN3CCCn4nc(CCC(=O)O)cc4C3)[C@@H]1C2,17.08%,-
CCCC(C)NC1CCN(c2ccc(-n3ccnc3C)cc2)CC1 (stereo not drawn),7.263%,-6.889%
CCCn1ccnc1CN1CCCC1c1cccc(-n2ccnc2)n1 (stereo not drawn),5.788%,-22.87%
O=C(c1ccsc1)N1CCc2c(COCC3CC3)cncc2C1,2.256%,-
Cn1ccnc1CN1CCC2(CC1)Cc1ccccc1CNC2=O,6.011%,-
CC(C)(C)C(=O)N[C@H]1CC[C@H](Nc2nccc(-c3ccncc3)n2)C1,14.08%,-3.72%
CCc1noc(CN(C)Cc2cc(Br)ccc2OC)n1,7.904%,-15.87%
NC(=O)C1CN(c2ccc3cc(Br)ccc3n2)CCO1 (stereo not drawn),13.77%,-12.87%
Nc1cc(-c2cccc3c2CCNC3)ncn1,9.091%,-8.441%
CN(CC(=O)NC1(C#N)CCCC1)C1CCCN(c2cccnn2)C1 (stereo not drawn),14.17%,-12.9%
COc1ccnc(CN(C)C(=O)CSc2nnc(N)s2)c1,3.125%,2.115%
Cc1cc(-c2ccc(=O)n(CCNC(=O)C3CCC3)n2)c(C)o1,4.088%,-21.57%
COCC(=O)N1CCCCC1c1nc(N(C)C)ncc1-c1cc(C)no1 (stereo not drawn),6.231%,-9.537%
CCCN1C[C@H]2CC[C@@H]1CN(C(=O)Cc1c(C)nc(CC)[nH]c1=O)C2,12.1%,-
CCc1noc(C(C)SCCS(C)(=O)=O)n1 (stereo not drawn),9.355%,-6.917%
Cn1cc(C[C@H]2[C@H](O)CCN2CC2CC2)cn1.O=C(O)C(F)(F)F,-,6.686%
[H][C@]12CC[C@@]3(N=C(C)NC3=O)[C@@]1([H])CN(C(=O)NCc1ccccc1C)C2,-,-22.4%
CCCNC(=O)c1cc(OC)c(OC)cc1N(C)S(C)(=O)=O,4.02%,-14.97%
CN(CC1(CO)CCCC1)C(=O)c1cc(COc2ccccc2F)[nH]n1,24.36%,-29.16%
Cc1nccnc1N1CCC(Cc2ccccc2Cl)(C(=O)O)CC1,4.982%,5.532%
CN1[C@@H](C(=O)NCC2CC2)C[C@@H]2CN(c3ncccn3)C[C@@H]21,9.489%,-
CCOc1ncccc1C(=O)N(C)Cc1ncc(C)c(OC)c1C,15.28%,-19.89%
Cc1cccc(N(CCC(N)=O)C(=O)c2cnccn2)c1,4.878%,31.8%
COc1nc(C)c(C(=O)N2CCc3[nH]nc(Cc4ccccc4)c3C2)s1,8.397%,17.68%
COc1cc(-c2cc(OC)c(OC)c(OC)c2)ncn1,7.039%,-14.37%
Cc1nn(C)c(N(C)C)c1CNCc1ccnn1C,10.34%,-9.149%
COCC(=O)N1C[C@H]2CN(Cc3cccc(F)c3)C(=O)[C@H]2C1,0%,-
O=C(O)C(F)(F)F.O=C(O)C(F)(F)F.O=C(O)C(F)(F)F.[H][C@@]12CCN(Cc3ccccn3)C[C@]1([H])[C@@H](CN(C)Cc1ccco1)OC2,-,-16.81%
CC(C)(C)C(NC(=O)CCCS(C)(=O)=O)c1ccc(F)cc1F (stereo not drawn),13.24%,-33.32%
O=C(O)C(F)(F)F.O=C(O)C(F)(F)F.c1csc(CN2CCOCC3(CCN(C4CCOCC4)C3)C2)c1 (stereo not drawn),-,-12.32%
[H][C@@]12COC[C@]1(COc1cccnc1)CN(C(=O)c1ccc(C)nc1)C2,-,-10.5%
CCCn1cnc2c1CN(C(=O)c1ccc(F)cc1)[C@H](C(=O)OC)C2,5.263%,-20.39%
O=C(O)C(F)(F)F.O=C(c1cccc(Cl)c1)N1CCCC2(CCCNC2)C1 (stereo not drawn),-,-7.6%
COc1ccc(CN(C(=O)CCC(C)C)c2cnn(C)c2)c(OC)c1,13.32%,1.164%
N[C@H]1CN(C(=O)c2ccc3[nH]c(=O)c(=O)[nH]c3c2)C[C@@H]1c1ccccc1,9.288%,-49.61%
Cl.NC(=O)COc1ccc(CNCc2ccc(F)c(F)c2)cc1,-,1.862%
Cc1nsc(C(=O)NCCc2ccc(F)cc2)n1,9.322%,36.5%
Cc1ccccc1C(C(=O)N(C)Cc1cnn(C)c1)N(C)C (stereo not drawn),17.58%,-19.43%
Cc1oc(-c2ccc(Cl)cc2)nc1C(=O)NC1=NCCS1,3.623%,105.8%
Cc1n[nH]c(CCC(=O)N2CCOC(Cc3ccccc3)C2)c1C (stereo not drawn),6.634%,-0.1438%

Once more, the final 6:

N[C@H]1CN(C(=O)c2ccc3[nH]c(=O)c(=O)[nH]c3c2)C[C@@H]1c1ccccc1 gave LdMetRS: 9.288%; Mtb heat-shock: -49.61%.
Cl.NC(=O)COc1ccc(CNCc2ccc(F)c(F)c2)cc1 gave Mtb heat-shock: 1.862%.
Cc1nsc(C(=O)NCCc2ccc(F)cc2)n1 gave LdMetRS: 9.322%; Mtb heat-shock: 36.5%.
Cc1ccccc1C(C(=O)N(C)Cc1cnn(C)c1)N(C)C (stereo not drawn) gave LdMetRS: 17.58%; Mtb heat-shock: -19.43%.
Cc1oc(-c2ccc(Cl)cc2)nc1C(=O)NC1=NCCS1 gave LdMetRS: 3.623%; Mtb heat-shock: 105.8%.
Cc1n[nH]c(CCC(=O)N2CCOC(Cc3ccccc3)C2)c1C (stereo not drawn) gave LdMetRS: 6.634%; Mtb heat-shock: -0.1438%.